Test results: patent US20250019410A1 (Sun Pharmaceutical Industries Ltd., priority 2021, published 2025)

Test: general procedure: Fmoc solid-phase peptide synthesis; 2-chlorotrityl chloride resin (protected fragments); Fmoc-Rink Amide AM resin (tirzepatide); Coupling reagent/Auxiliary nucleophile/Base
Conditions: whole synthesis, sodium salt, acetate salt; for crude purity (method not given): HPLC

Substance | crude purity (method not given) | crude yield
Fmoc-Thr(tBu)^5-Phe-Thr(tBu)-Ser(tBu)^8 | 99% Purity | >90% Yield
Fmoc-Lys(Boc)^16-Ile-Ala-Gln(Trt)-Lys(Side chain)*-Ala-Phe-Val-Gln(Trt)-Trp-Leu-Ile-Ala -Gly^29-OH | 80% Purity | –
Boc-Tyr(tBu)^t-Aib-Glu(OtBu)-Gly^4-OH | 96% Purity | 91% Yield
Fmoc-Ala^18-Gln(Trt)-Lys(Side Chain)*-Ala-Phe-Val-Gln(Trt)-Trp^25-Leu-Ile-Ala-Gly^29-OH | 92% Purity | –
Fmoc-Ala^18-Gln(Trt)-Lys(ivdde)*-Ala Phe-Val-Gln(Trt)-Trp^25-Leu-Ile-Ala-Gly^29-OH | 95% Purity | 95% Yield
